# Values of other authors, collected in patent publication US20040019080A1, “Prevention and treatment of migraine and other recurrent headaches using leukotriene LTD4 receptor blocker drugs” (priority 1998, published 2004).
# “Also recorded” adds a separate entry of the source. At least one structure is not confirmed: it was looked up by name or label, or the drawing left a doubt.
# Assays:
# LTD4 receptors = molecular target: T1, LTD4 receptors (Homo sapiens, UniProt Q9Y271); details: cited from earlier work
# T1 sequence (Q9Y271 1-337): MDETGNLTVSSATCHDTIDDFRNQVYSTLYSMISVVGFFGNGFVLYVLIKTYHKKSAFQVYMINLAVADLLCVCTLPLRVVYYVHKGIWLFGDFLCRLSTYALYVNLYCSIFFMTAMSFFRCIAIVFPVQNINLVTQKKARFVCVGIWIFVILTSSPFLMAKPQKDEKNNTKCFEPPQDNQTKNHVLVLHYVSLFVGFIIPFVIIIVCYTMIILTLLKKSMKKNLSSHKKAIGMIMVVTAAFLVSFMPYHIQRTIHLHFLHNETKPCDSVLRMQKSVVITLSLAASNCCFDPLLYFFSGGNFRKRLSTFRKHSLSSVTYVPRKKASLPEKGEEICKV
# LTE4 receptors = details: cited from earlier work
smiles,measurement,setting,value
CC(C)(O)c1ccccc1CC[C@@H](SCC1(CC(=O)O)CC1)c1cccc(/C=C/c2ccc3ccc(Cl)cc3n2)c1 [montelukast],blocking / activity at LTD4 receptors,LTD4 receptors,appear to block; also recorded: some level of activity
same,blocking / activity at LTE4 receptors,LTE4 receptors,appear to block; also recorded: some level of activity
